Source: PubChem BioAssay AID686938 (Drosophila RNAi Screening Center, 2013)
In all, the deposit lists about 23,000 reagents; this is a random part of those that have a named target and a result. In the full data, 75 (0.33%) got an active call. 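Raw plate signals without normalisation; calls rest on plate z-scores that were not deposited; ratio present for only 364 wells.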 The numbers tell different reagents against one gene apart. A plus sign joins genes that one reagent is predicted to hit. The record does not give: the dose of the treatment.

Screen: 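Looking for CRAC channel components and the factors controlling them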 (primary screen)
System: Drosophila S2R+ cells
Knock-down reagent: long dsRNA against Drosophila genes, about 0.25 µg dsRNA per well, roughly 10,000 cells
Duration: 5 days of knock-down before the calcium assay
Challenge: thapsigargin (SERCA pump blocker) to empty calcium stores; entry signal taken 4 min after adding it
Measured: 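Duplicate raw fluo-4 intensities per well from a plate reader, at rest and four minutes after thapsigargin emptied calcium stores; entry-to-rest ratio filled for only some wells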
Reading the numbers: calcium entry signal: higher = stronger calcium signal after store depletion; entry to resting ratio: higher = more calcium entry relative to resting level; resting calcium signal: higher = higher resting calcium signal
Rule for the call: 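Called when the plate z-score of the entry-to-rest ratio, mean of duplicates, falls below −3; wells with low overall dye signal (Fmax z below −2) or more than five off-targets excluded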
Calls: active = strongly reduced calcium entry; inactive = no strong reduction

target,dsRNA no.,"calcium entry signal, replicate 1 (fluorescence units)","calcium entry signal, replicate 2 (fluorescence units)",entry to resting ratio,"resting calcium signal, replicate 1 (fluorescence units)","resting calcium signal, replicate 2 (fluorescence units)",Outcome
Cpr65Ay (GeneID 5740348),1,4.44e7,3.84e7,,2.38e7,1.78e7,inactive
MstProx + Mst84Da,1,2.83e7,2.20e7,,1.37e7,1.11e7,inactive
CG6204 (GeneID 42877),1,3.70e7,3.46e7,,1.99e7,1.60e7,inactive
CG2225 (GeneID 35421),1,3.66e7,,,1.77e7,,inactive
CG2225 (GeneID 35421),2,2.67e7,4.09e7,,1.50e7,1.80e7,inactive
bnl (GeneID 42356),1,4.34e7,3.40e7,,2.27e7,1.68e7,inactive
bnl (GeneID 42356),2,3.52e7,2.93e7,,1.70e7,1.39e7,inactive
bnl (GeneID 42356),3,3.80e7,4.02e7,,1.97e7,1.94e7,inactive
CG9784 (GeneID 32629),1,2.76e7,2.48e7,,1.43e7,1.22e7,inactive
CR14117 (GeneID 39473),1,2.30e7,3.62e7,,1.22e7,1.49e7,inactive
CG12069 (GeneID 43643),1,4.12e7,4.55e7,,2.04e7,2.02e7,inactive
CG14556 (GeneID 43176),1,3.53e7,4.61e7,,1.82e7,1.99e7,inactive
CG8006 (GeneID 38920),1,3.62e7,2.22e7,,2.49e7,1.06e7,inactive

In a second layout: entries from further up
bnl (GeneID 42356) #3
- calcium entry signal, replicate 1 (fluorescence units): 3.80e7
- calcium entry signal, replicate 2 (fluorescence units): 4.02e7
- resting calcium signal, replicate 1 (fluorescence units): 1.97e7
- resting calcium signal, replicate 2 (fluorescence units): 1.94e7
- Outcome: inactive

CG9784 (GeneID 32629)
- calcium entry signal, replicate 1 (fluorescence units): 2.76e7
- calcium entry signal, replicate 2 (fluorescence units): 2.48e7
- resting calcium signal, replicate 1 (fluorescence units): 1.43e7
- resting calcium signal, replicate 2 (fluorescence units): 1.22e7
- Outcome: inactive

CR14117 (GeneID 39473)
- calcium entry signal, replicate 1 (fluorescence units): 2.30e7
- calcium entry signal, replicate 2 (fluorescence units): 3.62e7
- resting calcium signal, replicate 1 (fluorescence units): 1.22e7
- resting calcium signal, replicate 2 (fluorescence units): 1.49e7
- Outcome: inactive

CG12069 (GeneID 43643)
- calcium entry signal, replicate 1 (fluorescence units): 4.12e7
- calcium entry signal, replicate 2 (fluorescence units): 4.55e7
- resting calcium signal, replicate 1 (fluorescence units): 2.04e7
- resting calcium signal, replicate 2 (fluorescence units): 2.02e7
- Outcome: inactive

CG14556 (GeneID 43176)
- calcium entry signal, replicate 1 (fluorescence units): 3.53e7
- calcium entry signal, replicate 2 (fluorescence units): 4.61e7
- resting calcium signal, replicate 1 (fluorescence units): 1.82e7
- resting calcium signal, replicate 2 (fluorescence units): 1.99e7
- Outcome: inactive

CG8006 (GeneID 38920)
- calcium entry signal, replicate 1 (fluorescence units): 3.62e7
- calcium entry signal, replicate 2 (fluorescence units): 2.22e7
- resting calcium signal, replicate 1 (fluorescence units): 2.49e7
- resting calcium signal, replicate 2 (fluorescence units): 1.06e7
- Outcome: inactive

The listing continues.
target,dsRNA no.,"calcium entry signal, replicate 1 (fluorescence units)","calcium entry signal, replicate 2 (fluorescence units)",entry to resting ratio,"resting calcium signal, replicate 1 (fluorescence units)","resting calcium signal, replicate 2 (fluorescence units)",Outcome
CG12746 (GeneID 40672),1,3.45e7,3.28e7,,1.40e7,1.43e7,inactive
CG3491 (GeneID 34870),1,3.81e7,2.20e7,,1.65e7,1.18e7,inactive
Tsp2A (GeneID 31080),1,4.25e7,4.11e7,2.1,2.02e7,1.77e7,inactive
CG17154 (GeneID 39373),1,3.38e7,4.31e7,,1.68e7,1.87e7,inactive
Pld (GeneID 35554),1,4.20e7,,,2.05e7,,inactive
CG13386 (GeneID 34165),1,3.14e7,4.07e7,,1.61e7,1.88e7,inactive
CG13954 (GeneID 35959),1,3.73e7,4.48e7,,1.86e7,2.05e7,inactive
RpS16 (GeneID 37580),1,1.68e7,1.67e7,,1.09e7,1.08e7,inactive
Cpr30F (GeneID 318997),1,5.94e7,,,2.61e7,,inactive
CG3419 (retired record) (GeneID 37896),1,4.20e7,4.57e7,,2.17e7,2.08e7,inactive
CG3419 (retired record) (GeneID 37896),2,4.29e7,5.12e7,,2.16e7,2.24e7,inactive
Grl62c (GeneID 5740507),1,3.53e7,3.60e7,,1.60e7,1.73e7,inactive
emb (GeneID 34167),1,3.06e7,,,2.18e7,,inactive
ChLD3 (GeneID 35002),1,3.48e7,2.19e7,,1.59e7,1.03e7,inactive
Naa60 (GeneID 39142),1,3.07e7,5.10e7,,1.51e7,2.22e7,inactive
Taf1 (GeneID 40813),1,2.85e7,1.93e7,,1.59e7,1.11e7,inactive
Pgant5 (GeneID 326151),1,4.29e7,,,2.07e7,,inactive
Tsf2 (GeneID 39435),1,5.71e7,4.62e7,,3.91e7,1.78e7,inactive
CG6891 (GeneID 32865),1,4.91e7,5.76e7,,2.51e7,2.20e7,inactive
stops (GeneID 43683),1,4.77e7,5.68e7,,2.34e7,2.39e7,inactive
stops (GeneID 43683),2,4.18e7,5.30e7,,2.13e7,2.33e7,inactive
stops (GeneID 43683),3,4.43e7,5.78e7,,2.18e7,2.50e7,inactive
CG4325 (GeneID 31167),1,3.66e7,3.77e7,1.7,2.11e7,1.87e7,inactive
CG4325 (GeneID 31167),2,8.35e7,1.61e7,,3.45e7,7.89e6,inactive
CG42808 (GeneID 10178961),1,3.01e7,2.93e7,,1.40e7,1.33e7,inactive
CG14143 (GeneID 39256),1,3.35e7,4.44e7,,1.57e7,1.92e7,inactive
Boh2 (GeneID 34559),1,3.36e7,4.24e7,,1.62e7,1.91e7,inactive
